Source: publication PMC6591222, “Phosphatidic acid homeostasis regulated by a type-2 phosphatidic acid phosphatase represents a novel druggable target in malaria intervention” (Cell Death Discovery, 2019)

Target: T1, PfPAP2 (type-2 phosphatidic acid phosphatase) (Plasmodium falciparum, UniProt A0A143ZY93)
T1 construct: gene PF3D7_0805600
Test: biochemical

With `CC(C)NCC(O)COc1cccc2ccccc12` (stereo not shown) [Propranolol] as the molecule, how does the Kd read?
Its Kd is 10 µM.
